Publication PMC5079590
For at least one entry, the source does not settle the construct or the ends of the probe.

How the values were obtained:
[1] = test system: GST-IbbHLH4 (Ipomoea batatas (sweet potato)); experiment: EMSA; settings: protein titration; EMSA: 5X binding buffer (50 mM Tris-HCl pH 8.0, 750 mM KCl, 2.5 mM EDTA, 62.5% glycerol), 1 ug poly(dI-dC), room temperature; 6.6% native gel, 0.5X TBE; recombinant protein; protein details: N-terminal GST (pGEX4T-3)
[2] = test system: GST-IbbHLH3 (Ipomoea batatas (sweet potato)); experiment: EMSA; settings: protein titration, 50x unlabeled NWRE used as competitor (outcome only in gel); EMSA: 5X binding buffer (50 mM Tris-HCl pH 8.0, 750 mM KCl, 2.5 mM EDTA, 62.5% glycerol), 1 ug poly(dI-dC), room temperature; 6.6% native gel, 0.5X TBE; recombinant protein; protein details: N-terminal GST (pGEX4T-3)

“GCGTTCTTACTTTTCGTAAGGGCACGTGAAGCACCCCAACAAA (double strand) [6FAM-NWRE]”: binds [1]; binds [2].
